Results published in the supplement of paper PMC12067093, “Discovery and optimisation of a covalent ligand for TRIM25 and its application to targeted protein ubiquitination” (Chemical Science, 2025).
The other results are listed elsewhere or left out.

Amino acid sequences for entries named in this document (tags omitted). A change or cut given only in a name is not applied to a line headed by its entry.
UniProt Q16774: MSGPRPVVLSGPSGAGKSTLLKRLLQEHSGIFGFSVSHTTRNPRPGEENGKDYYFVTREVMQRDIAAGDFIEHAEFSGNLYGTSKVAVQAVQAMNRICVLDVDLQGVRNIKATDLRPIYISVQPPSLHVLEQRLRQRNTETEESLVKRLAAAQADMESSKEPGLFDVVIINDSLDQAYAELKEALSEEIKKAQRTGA
UniProt Q8N3Z3: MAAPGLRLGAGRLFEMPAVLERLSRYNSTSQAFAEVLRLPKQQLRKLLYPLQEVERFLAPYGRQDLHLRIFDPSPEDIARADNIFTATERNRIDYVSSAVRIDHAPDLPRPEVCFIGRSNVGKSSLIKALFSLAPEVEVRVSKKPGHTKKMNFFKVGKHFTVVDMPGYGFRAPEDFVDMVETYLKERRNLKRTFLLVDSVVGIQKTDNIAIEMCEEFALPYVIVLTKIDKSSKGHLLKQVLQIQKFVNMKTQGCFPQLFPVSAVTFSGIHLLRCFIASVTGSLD
UniProt P21266: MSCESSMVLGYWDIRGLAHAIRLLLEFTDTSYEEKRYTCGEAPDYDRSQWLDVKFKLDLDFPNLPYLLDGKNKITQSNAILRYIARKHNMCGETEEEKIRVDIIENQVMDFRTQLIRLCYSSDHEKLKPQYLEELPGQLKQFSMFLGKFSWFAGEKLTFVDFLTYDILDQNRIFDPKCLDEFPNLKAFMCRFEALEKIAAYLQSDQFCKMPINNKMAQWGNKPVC
UniProt P09211: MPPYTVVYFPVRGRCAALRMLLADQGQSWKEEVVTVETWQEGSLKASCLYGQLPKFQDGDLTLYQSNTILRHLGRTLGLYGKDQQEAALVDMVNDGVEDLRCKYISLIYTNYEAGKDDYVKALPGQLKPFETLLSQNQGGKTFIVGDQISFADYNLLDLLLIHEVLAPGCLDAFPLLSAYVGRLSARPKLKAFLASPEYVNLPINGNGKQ
UniProt Q12789: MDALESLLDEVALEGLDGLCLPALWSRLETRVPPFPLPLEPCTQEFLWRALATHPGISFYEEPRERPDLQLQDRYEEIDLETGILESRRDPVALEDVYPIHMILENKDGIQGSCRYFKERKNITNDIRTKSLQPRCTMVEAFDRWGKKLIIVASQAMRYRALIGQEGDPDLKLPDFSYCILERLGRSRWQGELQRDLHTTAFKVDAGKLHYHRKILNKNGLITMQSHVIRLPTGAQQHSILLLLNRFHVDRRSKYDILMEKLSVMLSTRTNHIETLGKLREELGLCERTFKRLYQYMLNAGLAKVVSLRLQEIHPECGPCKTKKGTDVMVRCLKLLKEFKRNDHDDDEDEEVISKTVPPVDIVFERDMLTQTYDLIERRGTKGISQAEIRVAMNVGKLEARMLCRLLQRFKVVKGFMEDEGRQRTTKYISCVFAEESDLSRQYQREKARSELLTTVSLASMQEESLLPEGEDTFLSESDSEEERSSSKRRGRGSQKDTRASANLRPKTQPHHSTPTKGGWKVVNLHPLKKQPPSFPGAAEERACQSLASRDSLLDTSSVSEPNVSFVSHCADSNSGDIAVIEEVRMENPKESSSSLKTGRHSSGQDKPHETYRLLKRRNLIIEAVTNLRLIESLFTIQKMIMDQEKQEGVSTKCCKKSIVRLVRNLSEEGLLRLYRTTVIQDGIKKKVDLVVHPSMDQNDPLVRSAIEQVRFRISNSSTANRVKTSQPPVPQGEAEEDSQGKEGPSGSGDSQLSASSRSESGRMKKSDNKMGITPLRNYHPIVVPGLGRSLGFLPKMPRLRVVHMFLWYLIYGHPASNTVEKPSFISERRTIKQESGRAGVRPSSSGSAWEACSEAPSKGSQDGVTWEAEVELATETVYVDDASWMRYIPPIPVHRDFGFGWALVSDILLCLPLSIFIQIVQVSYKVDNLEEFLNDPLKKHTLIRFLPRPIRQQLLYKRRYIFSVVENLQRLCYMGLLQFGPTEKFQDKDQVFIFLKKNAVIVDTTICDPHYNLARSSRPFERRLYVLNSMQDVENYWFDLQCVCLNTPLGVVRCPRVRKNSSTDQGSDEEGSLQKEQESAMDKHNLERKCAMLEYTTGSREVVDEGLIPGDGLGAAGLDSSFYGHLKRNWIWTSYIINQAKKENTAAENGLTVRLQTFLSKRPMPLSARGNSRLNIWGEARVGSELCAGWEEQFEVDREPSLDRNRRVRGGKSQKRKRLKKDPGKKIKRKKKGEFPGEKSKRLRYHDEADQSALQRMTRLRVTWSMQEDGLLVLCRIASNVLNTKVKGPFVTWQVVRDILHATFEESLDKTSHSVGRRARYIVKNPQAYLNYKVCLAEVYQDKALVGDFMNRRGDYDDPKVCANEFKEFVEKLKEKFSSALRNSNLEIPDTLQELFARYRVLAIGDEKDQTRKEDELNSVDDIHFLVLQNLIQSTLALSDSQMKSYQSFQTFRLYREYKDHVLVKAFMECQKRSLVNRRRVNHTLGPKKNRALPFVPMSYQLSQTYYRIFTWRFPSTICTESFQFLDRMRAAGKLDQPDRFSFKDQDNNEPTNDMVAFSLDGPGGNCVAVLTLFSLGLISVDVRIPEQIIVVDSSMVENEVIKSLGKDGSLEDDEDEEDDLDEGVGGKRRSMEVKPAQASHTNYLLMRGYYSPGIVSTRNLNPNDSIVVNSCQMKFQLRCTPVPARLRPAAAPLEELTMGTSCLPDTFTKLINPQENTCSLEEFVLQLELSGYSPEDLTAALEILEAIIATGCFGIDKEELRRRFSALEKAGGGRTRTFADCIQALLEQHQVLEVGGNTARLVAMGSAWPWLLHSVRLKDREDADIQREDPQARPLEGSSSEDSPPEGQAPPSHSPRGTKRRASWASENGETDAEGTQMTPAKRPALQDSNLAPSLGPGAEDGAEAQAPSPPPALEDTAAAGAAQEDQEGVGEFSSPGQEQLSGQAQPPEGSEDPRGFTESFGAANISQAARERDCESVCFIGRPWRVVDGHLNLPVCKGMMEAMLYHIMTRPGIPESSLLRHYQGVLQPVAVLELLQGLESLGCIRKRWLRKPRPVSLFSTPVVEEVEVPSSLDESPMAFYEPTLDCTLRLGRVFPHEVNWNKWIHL
UniProt P28799: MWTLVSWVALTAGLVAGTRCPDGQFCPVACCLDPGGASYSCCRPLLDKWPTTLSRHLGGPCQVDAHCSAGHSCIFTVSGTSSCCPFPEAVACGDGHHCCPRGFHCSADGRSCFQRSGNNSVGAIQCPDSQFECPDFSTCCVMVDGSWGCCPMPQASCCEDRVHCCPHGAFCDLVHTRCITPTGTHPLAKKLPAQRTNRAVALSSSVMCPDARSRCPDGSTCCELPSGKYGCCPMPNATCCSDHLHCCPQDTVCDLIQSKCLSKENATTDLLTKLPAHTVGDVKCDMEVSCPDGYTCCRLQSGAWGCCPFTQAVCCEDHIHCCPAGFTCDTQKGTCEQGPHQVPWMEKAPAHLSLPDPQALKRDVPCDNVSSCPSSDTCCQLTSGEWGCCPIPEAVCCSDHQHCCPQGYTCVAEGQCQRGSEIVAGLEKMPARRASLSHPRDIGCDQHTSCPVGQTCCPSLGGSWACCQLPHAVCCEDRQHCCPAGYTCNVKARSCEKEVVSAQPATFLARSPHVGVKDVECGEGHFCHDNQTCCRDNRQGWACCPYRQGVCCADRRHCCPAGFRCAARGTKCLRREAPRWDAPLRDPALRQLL
UniProt P49841: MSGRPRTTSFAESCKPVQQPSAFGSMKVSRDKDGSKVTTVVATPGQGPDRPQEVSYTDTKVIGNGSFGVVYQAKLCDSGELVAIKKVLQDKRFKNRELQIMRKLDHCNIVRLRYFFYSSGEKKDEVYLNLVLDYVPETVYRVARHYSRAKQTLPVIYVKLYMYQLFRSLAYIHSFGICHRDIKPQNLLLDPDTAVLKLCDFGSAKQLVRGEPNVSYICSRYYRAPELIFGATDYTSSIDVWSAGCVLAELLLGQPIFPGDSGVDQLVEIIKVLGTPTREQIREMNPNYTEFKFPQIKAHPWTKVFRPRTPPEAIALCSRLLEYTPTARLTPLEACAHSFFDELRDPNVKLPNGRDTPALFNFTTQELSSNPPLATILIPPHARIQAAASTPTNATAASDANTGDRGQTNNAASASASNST
UniProt Q9BQ67, whole entry, looked up: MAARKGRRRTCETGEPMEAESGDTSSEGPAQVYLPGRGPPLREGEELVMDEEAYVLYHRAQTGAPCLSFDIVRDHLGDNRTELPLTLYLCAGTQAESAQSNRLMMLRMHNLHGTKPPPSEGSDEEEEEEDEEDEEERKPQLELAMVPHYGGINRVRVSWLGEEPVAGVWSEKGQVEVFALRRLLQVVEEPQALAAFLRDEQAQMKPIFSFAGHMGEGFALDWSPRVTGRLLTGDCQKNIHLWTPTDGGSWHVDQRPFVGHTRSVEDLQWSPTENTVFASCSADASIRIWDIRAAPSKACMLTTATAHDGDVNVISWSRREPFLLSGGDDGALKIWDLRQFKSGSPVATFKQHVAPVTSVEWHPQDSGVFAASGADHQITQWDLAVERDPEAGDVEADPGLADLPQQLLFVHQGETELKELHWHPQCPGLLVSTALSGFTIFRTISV
UniProt P78347: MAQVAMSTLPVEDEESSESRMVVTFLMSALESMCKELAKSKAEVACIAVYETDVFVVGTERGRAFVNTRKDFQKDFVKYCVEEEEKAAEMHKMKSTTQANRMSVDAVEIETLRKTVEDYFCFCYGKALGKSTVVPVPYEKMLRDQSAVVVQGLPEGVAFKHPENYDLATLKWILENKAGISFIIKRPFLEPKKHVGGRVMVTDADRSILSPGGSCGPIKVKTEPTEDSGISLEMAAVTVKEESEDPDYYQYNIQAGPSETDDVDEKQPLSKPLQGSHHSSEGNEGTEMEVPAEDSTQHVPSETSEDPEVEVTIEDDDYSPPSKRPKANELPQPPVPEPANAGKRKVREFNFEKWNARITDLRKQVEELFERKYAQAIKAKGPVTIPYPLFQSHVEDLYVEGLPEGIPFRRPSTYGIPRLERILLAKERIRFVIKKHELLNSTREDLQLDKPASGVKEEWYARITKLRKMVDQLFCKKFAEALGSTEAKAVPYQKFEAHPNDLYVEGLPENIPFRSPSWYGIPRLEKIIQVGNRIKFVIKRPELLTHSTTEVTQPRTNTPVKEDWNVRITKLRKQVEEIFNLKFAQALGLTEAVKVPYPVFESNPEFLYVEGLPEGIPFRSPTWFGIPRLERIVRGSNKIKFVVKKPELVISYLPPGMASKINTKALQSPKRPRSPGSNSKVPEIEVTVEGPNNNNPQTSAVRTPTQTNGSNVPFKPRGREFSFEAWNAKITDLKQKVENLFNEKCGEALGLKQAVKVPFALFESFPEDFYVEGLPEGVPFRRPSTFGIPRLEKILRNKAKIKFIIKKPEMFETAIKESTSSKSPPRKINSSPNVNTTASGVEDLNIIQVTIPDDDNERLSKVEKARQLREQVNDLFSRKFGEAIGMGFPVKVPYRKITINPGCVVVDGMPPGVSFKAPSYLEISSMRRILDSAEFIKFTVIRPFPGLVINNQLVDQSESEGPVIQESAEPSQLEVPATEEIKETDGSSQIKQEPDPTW
UniProt P12081: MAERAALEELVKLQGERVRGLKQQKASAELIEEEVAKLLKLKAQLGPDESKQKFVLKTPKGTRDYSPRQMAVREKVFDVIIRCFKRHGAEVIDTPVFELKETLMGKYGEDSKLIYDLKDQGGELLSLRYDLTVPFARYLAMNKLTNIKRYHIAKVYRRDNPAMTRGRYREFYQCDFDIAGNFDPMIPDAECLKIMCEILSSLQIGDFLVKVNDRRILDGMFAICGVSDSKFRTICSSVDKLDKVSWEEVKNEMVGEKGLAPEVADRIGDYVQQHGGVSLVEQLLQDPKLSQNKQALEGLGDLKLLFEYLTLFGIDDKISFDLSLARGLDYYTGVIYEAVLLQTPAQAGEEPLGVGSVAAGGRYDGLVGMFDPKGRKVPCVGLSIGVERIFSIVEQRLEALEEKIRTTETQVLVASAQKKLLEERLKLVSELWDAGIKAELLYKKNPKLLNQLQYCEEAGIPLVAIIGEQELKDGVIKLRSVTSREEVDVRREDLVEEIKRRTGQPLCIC
UniProt Q13098: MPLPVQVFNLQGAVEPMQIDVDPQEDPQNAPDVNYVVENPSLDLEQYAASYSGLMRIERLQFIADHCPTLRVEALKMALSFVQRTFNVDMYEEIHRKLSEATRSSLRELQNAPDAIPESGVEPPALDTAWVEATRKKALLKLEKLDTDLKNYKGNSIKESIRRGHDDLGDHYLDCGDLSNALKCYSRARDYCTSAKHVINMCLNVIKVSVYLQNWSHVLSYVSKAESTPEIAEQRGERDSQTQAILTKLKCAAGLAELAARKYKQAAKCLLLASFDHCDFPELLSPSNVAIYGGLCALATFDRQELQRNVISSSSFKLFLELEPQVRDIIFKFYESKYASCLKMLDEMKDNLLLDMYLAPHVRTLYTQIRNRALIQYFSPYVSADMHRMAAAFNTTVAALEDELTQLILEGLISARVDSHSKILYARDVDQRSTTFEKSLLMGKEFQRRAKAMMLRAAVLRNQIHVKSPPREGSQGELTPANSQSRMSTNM
UniProt P52657, whole entry, looked up: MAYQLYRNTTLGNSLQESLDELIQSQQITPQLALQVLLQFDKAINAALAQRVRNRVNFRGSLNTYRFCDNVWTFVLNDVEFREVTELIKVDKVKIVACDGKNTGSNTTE

These targets were tested with CC1Cc2ccccc2N1C(=O)C1CCCN(C1)C(=O)CCl (mixture of isomers) [TRIM25 ligand 11 (diastereomer mixture)] (assay: probe-labelled cysteine peptide fold change vs DMSO (competition) (log2 fold change); higher = less target engagement (more negative = stronger competition)). Conditions: 10 µM; THP-1; incubation time: 4 h.
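Further: competitive chemoproteomic profiling in live THP-1 cells with an iodoacetamide desthiobiotin (IA-DTB) probe, comparing probe-labelled peptide intensities in compound-treated cells against DMSO-treated controls.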

Row | Target | probe-labelled cysteine peptide fold change
1 | GUK1_Q16774_98_ICVLDVDLQGVR (UniProt Q16774) | 0.183
2 | GTPBP8_Q8N3Z3_114_IDHAPDLPRPEVCFIGR (UniProt Q8N3Z3) | -0.0514
3 | GSTM3_P21266_39_YTCGEAPDYDR (UniProt P21266) | 0.0109
4 | GSTP1_P09211_102_DQQEAALVDMVNDGVEDLRCK (UniProt P09211) | -0.268
5 | GTF3C1_Q12789_1783_TFADCIQALLEQHQVLEVGGNTAR (UniProt Q12789) | -0.0529
6 | GRAMD1A_Q96CP6_456_RGPQAGGCVVDSEVLTQGIPYQDYFYTAHR (UniProt Q96CP6) | 0.107
7 | GTPBP4_Q9BZE4_261_AAVLYVMDLSEQCGHGLR (UniProt Q9BZE4) | 0.177
8 | GRN_P28799_178_CITPTGTHPLAK (UniProt P28799) | 0.0869
9 | GSK3B_P49841_335_LTPLEACAHSFFDELRDPNVK (UniProt P49841) | 0.0464
10 | GSDME_O60443_156_NEVLCVLTQK (UniProt O60443) | 0.0618
11 | GPRIN1_Q7Z2K8_221_VDPLCSSK (UniProt Q7Z2K8) | -0.249
12 | GZF1_Q9H116_282_NEGCQAGAELEELSK (UniProt Q9H116) | -0.0126
13 | GSTM3_P21266_178_CLDEFPNLK (UniProt P21266) | -0.0117
14 | GPR108_Q9NPR9_104_DFQDCPLQK (UniProt Q9NPR9) | -0.00493
15 | HADHA_P40939_322_TGIEQGSDAGYLCESQK (UniProt P40939) | -0.0938
16 | GSK3B_P49841_317_TPPEAIALCSR (UniProt P49841) | -0.215
17 | GRWD1_Q9BQ67_90_DHLGDNRTELPLTLYLCAGTQAESAQSNR (UniProt Q9BQ67) | -0.184
18 | GTF2I_P78347_903_KITINPGCVVVDGMPPGVSFK (UniProt P78347) | -0.0687
19 | GSR_P00390_134_VMWNTAVHSEFMHDHADYGFPSCEGK (UniProt P00390) | 0.144

Row | Target | probe-labelled cysteine peptide fold change
20 | GYS1_P13807_444_QSFPPVCTHNMLDDSSDPILTTIRR (UniProt P13807) | -0.36
21 | GSN_P06396_228_ATEVPVSWESFNNGDCFILDLGNNIHQWCGSNSNR (UniProt P06396) | -0.0974
22 | GTF3C1_Q12789_853_AGVRPSSSGSAWEACSEAPSK (UniProt Q12789) | 0.0312
23 | GSTP1_P09211_48_ASCLYGQLPK (UniProt P09211) | 0.0608
24 | HARS_P12081_235_TICSSVDK (UniProt P12081) | 0.0434
25 | GTPBP3_Q969Y2_188_QLDGELGHLCR (UniProt Q969Y2) | 0.00128
26 | GRK4_P32298_204_GGFGEVCACQVR (UniProt P32298) | 0.149
27 | GTF2I_P78347_46_SKAEVACIAVYETDVFVVGTER (UniProt P78347) | 0.128
28 | GPS1_Q13098_67_LQFIADHCPTLR (UniProt Q13098) | 0.126
29 | GRWD1_Q9BQ67_299_ACMLTTATAHDGDVNVISWSR (UniProt Q9BQ67) | -0.0845
30 | GTF3C4_Q9UKN8_376_CVPLYHPYQK (UniProt Q9UKN8) | -0.0224
31 | GTSF1_Q8WW33_51_LATCPFNAR (UniProt Q8WW33) | -0.439
32 | HAT1_O14929_376_CLRPEELTNQMNQIEISMQHEQLEESFQELVEDYRR (UniProt O14929) | 0.131
33 | GPS1_Q13098_175_RGHDDLGDHYLDCGDLSNALK (UniProt Q13098) | 0.0394
34 | HACE1_Q8IYU2_172_TELLHDLVQHVSDVDVEDAMGQTALHVACQNGHK (UniProt Q8IYU2) | 0.071
35 | GTF2A2_P52657_98_IVACDGK (UniProt P52657) | -0.116
36 | GTF3C3_Q9Y5Q9_172_GEREEAILMCMEIIR (UniProt Q9Y5Q9) | -0.00985
37 | GSE1_Q14687_1151_QVLQTQCR (UniProt Q14687) | -0.12
